The values that follow come from patent publication US20020132223.

Construct, isoform or probe ends are uncertain for at least one entry.

Data set [1] relates to FXR/RXRm heterodimer RXRalpha Asp322Pro (also printed Asp332Pro). As to the kind of experiment: EMSA. Particulars: RXRm heterodimer; GST-GRIP1 recruitment; same buffer, RT; protein translated in vitro; protein details: FXR + mutant human RXRalpha.
A further data set deals with FXR/RXR heterodimer. Kind of data set: EMSA. The note with it: ligand-dependent GST-GRIP1 recruitment on probe; 10 mM Tris pH 8, 50 mM KCl, 6% glycerol, 0.05% NP-40, 1 mM DTT, poly dI-dC, RT; protein translated in vitro. (In general: In EMSA bound probe runs differently from free probe, usually more slowly.)
Data set [2] deals with FXR/RXR heterodimer (cells). As to the kind of experiment: activity in cells. The note with it: luciferase reporter activated by CDCA; antagonised by clotrimazole, Compound A and Compound B; protein in cells; only the site is given. Background: In a reporter assay the amount or activity of a reporter protein is the signal.

For the sequence “AGCTCGATGGACAAGTGCATTGAACCCTTGAAGCTT (double strand) [hsp27 EcRE probe]”, the binding result (in data set [1]; with FXR/RXR heterodimer) was “binds” each time. Consider “AGCTCGATGGACAAGTGCATTGAACCCTTGAAGCTT (double strand) [hsp27 EcRE x6 reporter]”, for which, in data set [2], the “activity on this sequence” value is on record as “active”.
